Experimental data taken from patent US20230364014A1, “SELF-ASSEMBLED GELS FOR CONTROLLED DELIVERY OF BIOLOGICS AND METHODS OF MAKING THEREOF” (Alivio Therapeutics, Inc., priority 2018, published 2023).
Some results were stated once for a whole list of compounds, not compound by compound.

Test: Loading of monoclonal antibody into AP gel microparticle suspension (Coomassie plus assay or HPLC of supernatant)
Format: physicochemical

adalimumab
encapsulation efficiency (AP gel microparticle suspension, time 0 measurement, FIG. 1): > 90% | mAb loading of the gels (calculated from percent encapsulated): 15-20 wt %
